# Results are given in words; binding and its absence hold for the method and conditions named. Binding seen in cells or lysates may run through a third protein. Some binding calls cover weakened binding; strength is not graded here.
# B1: reovirus nonstructural protein μNS (protein, UniProt P12419 1-721)
# chain: MASFKGFSANTVPVSKAKRDISSLAATPGLRSQSFTPSVDMSQSREFLTKAIEQGSMSIPYQHVNVPKVDRKVVSLVVRPFSSGAFSISGVISPAHAYLLECLPQLEQAMAFVASPESFQASDVAKRFAIKPGMSLQDAITAFINFVSAMLKMTVTRQNFDVIVAEIERLASTSVSVRTEEAKVADEELMLFGLDHRGPQLVDVSDAKGIMKAADIQTTHDVHLAPGVGNIDPEIYNEGRFMFMQHKPLAADQSYFTLETADYFKIYPTYDEHDGRMADQKQSGLILCTKDEVLAEQTIFKLDAPDDKTVHLLDRDDDHVVARFTKVFIEDVAPGHHAAQRSGQRSVLDDLYANTQVISITSAALKWVVKHGVSDGIVNRKNVKVCVGFDPLYTLSTHNGVSLCALLMDEKLSVLNSACRMTLRSLMKTGRDVDAHRAFQRVLSQGYTSLMCYYHPSRKLAYGEVLFLERSNDVTDGIKLQLDASRQCHECPVLQQKVVELEKQIIMQKSIQSDPTPVALQPLLSQLRELSSEVTRLQMELSRAQSLNAQLEADVKSAQSCSLDMYLRHHTCINGHAKEDELLDAVRVAPDVRREIMEKRSEVRQGWCERISKEAAAKCQTVIDDLTLMNGKQAQEITELRDSAEKYEKQIAELVSTITQNQITYQQELQALVAKNVELDALNQRQAKSLRITPSLLSATPIDSVDDVADLIDFSVPTDEL
# Target: reovirus nonstructural protein σNS, wild type (mammalian orthoreovirus strain T3D) (UniProt P03526)
# Assay: co-IP; HEK293T cotransfected with σNS and μNS plasmids, 24 h; lysed in co-IP buffer (20 mM Tris pH 7.5, 137 mM NaCl, 2 mM EDTA, 0.1% NP-40 substitute) at 4°C; σNS precipitated with σNS-specific monoclonal antibody 3E10 on protein G Dynabeads, 4°C, 4 h; immunoblot with μNS antiserum
binder,measurement,value
B1,binding,binds

# Source: paper PMC8406312, “Reovirus Nonstructural Protein σNS Recruits Viral RNA to Replication Organelles” (mBio, 2021)
